# Experimental data from doi:10.1101/2021.05.02.442373.
# These are yes or no findings as the source states them, for the method shown. Some binding calls cover weakened binding; strength is not graded here. Sequences can lack the tags named with a protein.
# T1: untagged human p75^NTR death domain (330-427) (human), P08138
# T1 chain: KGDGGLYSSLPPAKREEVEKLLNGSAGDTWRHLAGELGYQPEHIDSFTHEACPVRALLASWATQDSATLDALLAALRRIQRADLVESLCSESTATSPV
# B1: untagged human p75^NTR death domain (330-427), P08138 330-427 (domain or fragment)
# chain: T1 chain
# How the values were obtained:
# [1] = target: T1, untagged human p75^NTR death domain …; assay: SEC; details: remark: other sources report otherwise
# [2] = target: T1, untagged human p75^NTR death domain …; assay: dynamic light scattering; details: remark: other sources report otherwise
binder,measurement,setting,value
B1,binding,[1],binds
same,binding,[2],binds
